Measured values as given in paper PMC3829167, “Directed Evolution of an Angiopoietin-2 Ligand Trap by Somatic Hypermutation and Cell Surface Display*” (The Journal of Biological Chemistry, 2013).
Results are given in words; binding and its absence hold for the method and conditions named. Some binding calls cover weakened binding; strength is not graded here. Values belong to the molecule of their own block, whether it stands above or below them.

Assays:
[1] = target: wild-type Tie2 ectodomain (residues 1-442) surface expression construct on DT40 cells (human) (UniProt Q02763); assay: flow cytometry on cells; DT40 cells displaying the Tie2 ectodomain construct incubated with 1 nM ligand for 30 min at room temperature in PBS with 10% fetal bovine serum; bound ligand stained at 4 °C with anti-His6, anti-Ang1 plus fluorescent secondary antibody, or fluorescent streptavidin; only the binder purified
human angiopoietin 2 = target: T1, human angiopoietin 2 (human, UniProt O15123 19-496); assay: ELISA; 5 μg/ml Ang1 or Ang2 immobilised in 96-well plates; blocked with TBS, 1 mg/ml BSA, 0.1% Triton-X 100; ectodomain-Fc fusion protein bound for 1 h at different concentrations, detected with anti-Tie2 ectodomain antibodies; saturation binding curves fitted by nonlinear regression; both purified
T1 construct: human angiopoietin 2 (Ang2), recombinant protein from R&D Systems; also called Ang2; source: bought: R&D Systems
T1 sequence (looked up): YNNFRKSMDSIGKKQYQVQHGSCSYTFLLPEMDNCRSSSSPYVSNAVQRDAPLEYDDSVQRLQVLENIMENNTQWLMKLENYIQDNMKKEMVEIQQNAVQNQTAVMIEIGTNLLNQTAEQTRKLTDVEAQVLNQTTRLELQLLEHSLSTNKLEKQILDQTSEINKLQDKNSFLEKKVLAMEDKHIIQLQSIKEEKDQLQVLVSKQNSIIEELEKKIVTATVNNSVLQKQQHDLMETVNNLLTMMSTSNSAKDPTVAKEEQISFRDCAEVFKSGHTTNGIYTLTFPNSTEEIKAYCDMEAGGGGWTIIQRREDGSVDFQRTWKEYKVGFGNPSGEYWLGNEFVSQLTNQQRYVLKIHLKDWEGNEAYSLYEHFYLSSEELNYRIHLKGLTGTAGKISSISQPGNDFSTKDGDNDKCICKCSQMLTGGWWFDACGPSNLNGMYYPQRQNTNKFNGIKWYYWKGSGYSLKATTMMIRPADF

binding [1]: binds
Molecule: human angiopoietin 2 (from UniProt O15123 19-496) (ligand)

binding (human angiopoietin 2): no binding
B1: soluble Tie2 ectodomain (1-442)-Fc fusion protein with the double Arg-167/His-168 deletion (Fc fusion, human, UniProt Q02763 23-442, looked up)
chain: AMDLILINSLPLVSDAETSLTCIASGWRPHEPITIGRDFEALMNQHQDPLEVTQDVTREWAKKVVWKREKASKINGAYFCEGRVRGEAIRIRTMKMRQQASFLPATLTMTVDKGDNVNISFKKVLIKEEDAVIYKNGSFIHSVPEVPDILEVHLPHAQPQDAGVYSARYIGGNLFTSAFTRLIVRRCEAQKWGPECNHLCTACMNNGVCHEDTGECICPPGFMGRTCEKACELHTFGRTCKERCSGQEGCKSYVFCLPDPYGCSCATGWKGLQCNEACHPGFYGPDCKLRCSCNNGEMCDRFQGCLCSPGWQGLQCEREGIQRMTPKIVDLPDHIEVNSGKFNPICKASGWPLPTNEEMTLVKPDGTVLHPKDFNHTDHFSVAIFTIHRILPPDSGVWVCSVNTVAGMVEKPFNISVK
notes: signal peptide in the construct; human Tie2 ectodomain, residues 1-442, Arg-167 and His-168 deleted; also called ΔRH; ΔArg-167/His-168; source: HEK293 cells, transfected, secreted, purified (nickel-nitrilotriacetic acid chromatography); not shown: Fc (human), C-terminal, kept
